PubChem BioAssay AID1259425 – University of Nebraska Medical Center – 2018

- Test: 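Find knockdowns that reproduce the gene expression pattern seen when KSR1 is lost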 (primary screen)
- Cells: HCT116 human colon cancer cells
- Knock-down reagent: siRNA pool against human genes, 50 nM siRNA
- Measurement: 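After 50 nM siRNA pool, branched-DNA assay measures six marker transcripts per well, minus blank, normalised to the geometric mean of two housekeeping transcripts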
- Direction: BNIP3L mRNA: higher = more BNIP3L transcript after knockdown; NDRG1 mRNA: higher = more NDRG1 transcript after knockdown; BNIP3 mRNA: higher = more BNIP3 transcript after knockdown
In all, the deposit lists about 14,000 reagents; this is a random part of them. Not all columns of the deposit are shown. Not stated in the record: the time to read-out.

target gene	PubChem SID	BNIP3L mRNA, set 1	NDRG1 mRNA, set 1	BNIP3 mRNA, set 1
ACSS3 (acyl-CoA synthetase short chain family member 3)	SID364002872	0.2	0.191	0.226
RPSA (ribosomal protein SA)	SID363993493	0.0481	0.365	0.319
CRMP1 (collapsin response mediator protein 1)	SID363992595	0.138	0.174	0.402
PTK7 (protein tyrosine kinase 7 (inactive))	SID363993977	0.104	0.162	0.574
GUSB (glucuronidase beta)	SID363991517	0.0407	0.354	0.216
CDH2 (cadherin 2)	SID363993011	0.0525	0.106	0.277
EN1 (engrailed homeobox 1)	SID363992690	0.0875	0.374	0.249
GNE	SID363996378	0.15	0.186	0.32
HMX1 (H6 family homeobox 1)	SID364001269	0.121	0.113	0.263
MMP2 (matrix metallopeptidase 2)	SID363995504	0.112	0.0896	0.275
TOX (thymocyte selection associated high mobility group box)	SID364005587	0.286	0.736	0.284
CCDC92 (coiled-coil domain containing 92)	SID364003270	0.177	0.299	0.433
OBSCN	SID364003122	0.141	0.334	0.296
OBSCN	SID364004402	0.218	0.145	0.373
OBSCN	SID364005361	0.0535	0.101	0.377
WNT3A (Wnt family member 3A)	SID364004332	0.0726	0.121	0.314
CD34 (CD34 molecule)	SID363992992	0.0479	0.0136	0.241
NIPAL3 (NIPA like domain containing 3)	SID364001704	0.0974	0.244	0.207
TRA2A (transformer 2 alpha homolog)	SID363998414	0.119	0.105	0.104
ADGRG5 (adhesion G protein-coupled receptor G5)	SID364004790	0.0809	0.229	0.186
GNA14 (G protein subunit alpha 14)	SID363995291	0.283	0.385	0.419
OR13A1 (olfactory receptor family 13 subfamily A member 1)	SID364005315	0.122	0.131	0.21
TENT4B (terminal nucleotidyltransferase 4B)	SID364002435	0.108	0.117	0.384
SLC10A2	SID363991783	0.136	0.292	0.203
FAM110A (family with sequence similarity 110 member A)	SID364003611	0.277	0.472	0.373
SLC16A5	SID363995655	0.215	0.604	0.472
FOXA2 (forkhead box A2)	SID364002177	0.112	0.213	0.115
DHPS (deoxyhypusine synthase)	SID363993143	0.0981	0.138	0.314
MED12 (mediator complex subunit 12)	SID363996055	0.141	0.314	0.267
ARL2BP (ARF like GTPase 2 binding protein)	SID363998055	0.175	0.182	0.398
LARP7 (La ribonucleoprotein 7, transcriptional regulator)	SID364000262	0.31	0.583	0.683
GABRA4 (gamma-aminobutyric acid type A receptor subunit alpha4)	SID363992099	0.0643	0.186	0.255
MAB21L2 (mab-21 like 2)	SID363997249	0.0949	0.172	0.358
TRAF2 (TNF receptor associated factor 2)	SID364002035	0.135	0.149	0.302
LAMTOR1 (late endosomal/lysosomal adaptor, MAPK and MTOR activator 1)	SID364000632	0.0825	0.146	0.24
FYTTD1 (forty-two-three domain containing 1)	SID364003876	0.187	0.0904	0.256
TRIM63 (tripartite motif containing 63)	SID364004076	0.391	0.346	0.722
CCNG2 (cyclin G2)	SID363995340	0.156	0.223	0.332
PIP5K1B (phosphatidylinositol-4-phosphate 5-kinase type 1 beta)	SID363994640	0.0891	0.15	0.294
ABHD11 (abhydrolase domain containing 11)	SID364003584	0.141	0.291	0.238
NSL1 (NSL1 component of MIS12 kinetochore complex)	SID363999518	0.184	0.193	0.52
CELF3 (CUGBP Elav-like family member 3)	SID363997885	0.112	1.45	0.265
NSD1 (nuclear receptor binding SET domain protein 1)	SID364002442	0.0879	0.239	0.232
NOVA1 (NOVA alternative splicing regulator 1)	SID363993687	0.0973	0.118	0.322
NEUROG3 (neurogenin 3)	SID364001941	0.142	0.229	0.395
KLRF1 (killer cell lectin like receptor F1)	SID364000168	0.081	0.0876	0.288
FXYD3 (FXYD domain containing ion transport regulator 3)	SID363996830	0.14	0.146	0.262
GPLD1 (glycosylphosphatidylinositol specific phospholipase D1)	SID363992761	0.0881	0.211	0.359
MRPL35 (mitochondrial ribosomal protein L35)	SID364000245	0.455	0.528	1.53
RAP1GAP2 (RAP1 GTPase activating protein 2)	SID363999294	0.135	0.112	0.286

4 entries already listed, sorted by “NDRG1 mRNA, set 1”, lowest first.
target gene	PubChem SID	BNIP3L mRNA, set 1	NDRG1 mRNA, set 1	BNIP3 mRNA, set 1
TRA2A (transformer 2 alpha homolog)	SID363998414	0.119	0.105	0.104
ADGRG5 (adhesion G protein-coupled receptor G5)	SID364004790	0.0809	0.229	0.186
NIPAL3 (NIPA like domain containing 3)	SID364001704	0.0974	0.244	0.207
GNA14 (G protein subunit alpha 14)	SID363995291	0.283	0.385	0.419
